Legend:
[1] = Stability of compounds in rat liver microsomes
[2] = Stability of compounds in mouse liver microsomes
[3] = Stability of compounds in human liver microsomes

Question: Which “Remaining, % (T=60min)” value [1] does the source give for CCCNCC(O)COc1ccccc1C(=O)CCc1ccccc1 (stereo not drawn) [Propafenone, reference compound] here?
Answer: 0.0%

Question: And the “Remaining, % (NCF=60min)” value ([1]; no co-factor (no NADPH))?
Answer: 103.2%

Question: And the “Remaining, % (T=60min)” value [2]?
Answer: 0.0%

Question: What about the “Remaining, % (NCF=60min)” value ([2]; no co-factor (no NADPH)) of the same compound?
Answer: 111.8%

Question: And the “Remaining, % (T=60min)” value [3]?
Answer: 0.0%

Question: What about the “Remaining, % (NCF=60min)” value ([3]; no co-factor (no NADPH)) of the same compound?
Answer: 92.4%

Source: publication PMC9233675, “Ru(II) photocages enable precise control over enzyme activity with red light” (Nature Communications, 2022)
